In patent US20240287178A1:
No constants are given. Whether binding was seen depends on the method and setting. In cells and extracts the contact can be indirect. Some binding calls cover weakened binding; strength is not graded here.

Amino acid sequences for entries named in this document (tags omitted). Residues count along the entry.
UniProt O08722, residues 27-945: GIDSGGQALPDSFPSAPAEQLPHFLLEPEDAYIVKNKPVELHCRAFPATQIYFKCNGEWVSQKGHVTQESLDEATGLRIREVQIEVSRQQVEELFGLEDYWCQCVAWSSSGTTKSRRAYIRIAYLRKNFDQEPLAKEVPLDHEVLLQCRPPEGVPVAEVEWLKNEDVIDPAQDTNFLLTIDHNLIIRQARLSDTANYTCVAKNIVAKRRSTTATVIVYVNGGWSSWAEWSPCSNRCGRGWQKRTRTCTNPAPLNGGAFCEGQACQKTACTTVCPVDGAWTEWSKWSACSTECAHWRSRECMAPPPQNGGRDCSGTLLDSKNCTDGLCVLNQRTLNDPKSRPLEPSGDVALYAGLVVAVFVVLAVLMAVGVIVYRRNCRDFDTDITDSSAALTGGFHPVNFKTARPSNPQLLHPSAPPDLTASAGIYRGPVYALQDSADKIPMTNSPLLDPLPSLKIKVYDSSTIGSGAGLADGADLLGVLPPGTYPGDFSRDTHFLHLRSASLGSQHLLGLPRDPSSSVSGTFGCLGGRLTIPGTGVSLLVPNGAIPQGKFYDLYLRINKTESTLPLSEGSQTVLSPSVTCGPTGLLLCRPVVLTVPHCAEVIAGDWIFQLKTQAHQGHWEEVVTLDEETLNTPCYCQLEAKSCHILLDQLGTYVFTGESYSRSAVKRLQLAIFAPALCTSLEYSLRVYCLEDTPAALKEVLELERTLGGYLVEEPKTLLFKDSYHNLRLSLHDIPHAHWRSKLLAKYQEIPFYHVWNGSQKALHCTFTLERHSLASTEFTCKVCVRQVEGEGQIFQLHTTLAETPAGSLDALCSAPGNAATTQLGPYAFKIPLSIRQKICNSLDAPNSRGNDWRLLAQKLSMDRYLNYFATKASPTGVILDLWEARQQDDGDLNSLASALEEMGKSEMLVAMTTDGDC

Target: T1, Claudin5 in porcine aortic endothelial cells (PAECs) (Sus scrofa) (UniProt C3VML1)
T1 sequence: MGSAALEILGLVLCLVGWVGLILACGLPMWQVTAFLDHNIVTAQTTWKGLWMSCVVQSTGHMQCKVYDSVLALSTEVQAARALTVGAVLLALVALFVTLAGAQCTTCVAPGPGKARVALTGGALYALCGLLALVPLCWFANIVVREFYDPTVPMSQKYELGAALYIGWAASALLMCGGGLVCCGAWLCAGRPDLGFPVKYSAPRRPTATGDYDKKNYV
Assay: co-immunoprecipitation from PAECs transfected with rat Unc5B-GFP

- binding: binds
Substance: rat Unc5B coupled to GFP, in transfected porcine aortic endothelial cells (PAECs) (from UniProt O08722 27-945) (receptor)
